These results are taken from article PMC11021519, “Niche Tet maintains germline stem cells independently of dioxygenase activity” (The EMBO Journal, 2024).

Protein sequences, listed by entry. Tags and fused reporters are not part of them. Lines headed by an entry give the natural chain unless they say otherwise; changes in a name come on top. Chains listed by the source or under a name are the forms on record and can include a tag or linker.
Flag-Tet (M9NEY8, form named): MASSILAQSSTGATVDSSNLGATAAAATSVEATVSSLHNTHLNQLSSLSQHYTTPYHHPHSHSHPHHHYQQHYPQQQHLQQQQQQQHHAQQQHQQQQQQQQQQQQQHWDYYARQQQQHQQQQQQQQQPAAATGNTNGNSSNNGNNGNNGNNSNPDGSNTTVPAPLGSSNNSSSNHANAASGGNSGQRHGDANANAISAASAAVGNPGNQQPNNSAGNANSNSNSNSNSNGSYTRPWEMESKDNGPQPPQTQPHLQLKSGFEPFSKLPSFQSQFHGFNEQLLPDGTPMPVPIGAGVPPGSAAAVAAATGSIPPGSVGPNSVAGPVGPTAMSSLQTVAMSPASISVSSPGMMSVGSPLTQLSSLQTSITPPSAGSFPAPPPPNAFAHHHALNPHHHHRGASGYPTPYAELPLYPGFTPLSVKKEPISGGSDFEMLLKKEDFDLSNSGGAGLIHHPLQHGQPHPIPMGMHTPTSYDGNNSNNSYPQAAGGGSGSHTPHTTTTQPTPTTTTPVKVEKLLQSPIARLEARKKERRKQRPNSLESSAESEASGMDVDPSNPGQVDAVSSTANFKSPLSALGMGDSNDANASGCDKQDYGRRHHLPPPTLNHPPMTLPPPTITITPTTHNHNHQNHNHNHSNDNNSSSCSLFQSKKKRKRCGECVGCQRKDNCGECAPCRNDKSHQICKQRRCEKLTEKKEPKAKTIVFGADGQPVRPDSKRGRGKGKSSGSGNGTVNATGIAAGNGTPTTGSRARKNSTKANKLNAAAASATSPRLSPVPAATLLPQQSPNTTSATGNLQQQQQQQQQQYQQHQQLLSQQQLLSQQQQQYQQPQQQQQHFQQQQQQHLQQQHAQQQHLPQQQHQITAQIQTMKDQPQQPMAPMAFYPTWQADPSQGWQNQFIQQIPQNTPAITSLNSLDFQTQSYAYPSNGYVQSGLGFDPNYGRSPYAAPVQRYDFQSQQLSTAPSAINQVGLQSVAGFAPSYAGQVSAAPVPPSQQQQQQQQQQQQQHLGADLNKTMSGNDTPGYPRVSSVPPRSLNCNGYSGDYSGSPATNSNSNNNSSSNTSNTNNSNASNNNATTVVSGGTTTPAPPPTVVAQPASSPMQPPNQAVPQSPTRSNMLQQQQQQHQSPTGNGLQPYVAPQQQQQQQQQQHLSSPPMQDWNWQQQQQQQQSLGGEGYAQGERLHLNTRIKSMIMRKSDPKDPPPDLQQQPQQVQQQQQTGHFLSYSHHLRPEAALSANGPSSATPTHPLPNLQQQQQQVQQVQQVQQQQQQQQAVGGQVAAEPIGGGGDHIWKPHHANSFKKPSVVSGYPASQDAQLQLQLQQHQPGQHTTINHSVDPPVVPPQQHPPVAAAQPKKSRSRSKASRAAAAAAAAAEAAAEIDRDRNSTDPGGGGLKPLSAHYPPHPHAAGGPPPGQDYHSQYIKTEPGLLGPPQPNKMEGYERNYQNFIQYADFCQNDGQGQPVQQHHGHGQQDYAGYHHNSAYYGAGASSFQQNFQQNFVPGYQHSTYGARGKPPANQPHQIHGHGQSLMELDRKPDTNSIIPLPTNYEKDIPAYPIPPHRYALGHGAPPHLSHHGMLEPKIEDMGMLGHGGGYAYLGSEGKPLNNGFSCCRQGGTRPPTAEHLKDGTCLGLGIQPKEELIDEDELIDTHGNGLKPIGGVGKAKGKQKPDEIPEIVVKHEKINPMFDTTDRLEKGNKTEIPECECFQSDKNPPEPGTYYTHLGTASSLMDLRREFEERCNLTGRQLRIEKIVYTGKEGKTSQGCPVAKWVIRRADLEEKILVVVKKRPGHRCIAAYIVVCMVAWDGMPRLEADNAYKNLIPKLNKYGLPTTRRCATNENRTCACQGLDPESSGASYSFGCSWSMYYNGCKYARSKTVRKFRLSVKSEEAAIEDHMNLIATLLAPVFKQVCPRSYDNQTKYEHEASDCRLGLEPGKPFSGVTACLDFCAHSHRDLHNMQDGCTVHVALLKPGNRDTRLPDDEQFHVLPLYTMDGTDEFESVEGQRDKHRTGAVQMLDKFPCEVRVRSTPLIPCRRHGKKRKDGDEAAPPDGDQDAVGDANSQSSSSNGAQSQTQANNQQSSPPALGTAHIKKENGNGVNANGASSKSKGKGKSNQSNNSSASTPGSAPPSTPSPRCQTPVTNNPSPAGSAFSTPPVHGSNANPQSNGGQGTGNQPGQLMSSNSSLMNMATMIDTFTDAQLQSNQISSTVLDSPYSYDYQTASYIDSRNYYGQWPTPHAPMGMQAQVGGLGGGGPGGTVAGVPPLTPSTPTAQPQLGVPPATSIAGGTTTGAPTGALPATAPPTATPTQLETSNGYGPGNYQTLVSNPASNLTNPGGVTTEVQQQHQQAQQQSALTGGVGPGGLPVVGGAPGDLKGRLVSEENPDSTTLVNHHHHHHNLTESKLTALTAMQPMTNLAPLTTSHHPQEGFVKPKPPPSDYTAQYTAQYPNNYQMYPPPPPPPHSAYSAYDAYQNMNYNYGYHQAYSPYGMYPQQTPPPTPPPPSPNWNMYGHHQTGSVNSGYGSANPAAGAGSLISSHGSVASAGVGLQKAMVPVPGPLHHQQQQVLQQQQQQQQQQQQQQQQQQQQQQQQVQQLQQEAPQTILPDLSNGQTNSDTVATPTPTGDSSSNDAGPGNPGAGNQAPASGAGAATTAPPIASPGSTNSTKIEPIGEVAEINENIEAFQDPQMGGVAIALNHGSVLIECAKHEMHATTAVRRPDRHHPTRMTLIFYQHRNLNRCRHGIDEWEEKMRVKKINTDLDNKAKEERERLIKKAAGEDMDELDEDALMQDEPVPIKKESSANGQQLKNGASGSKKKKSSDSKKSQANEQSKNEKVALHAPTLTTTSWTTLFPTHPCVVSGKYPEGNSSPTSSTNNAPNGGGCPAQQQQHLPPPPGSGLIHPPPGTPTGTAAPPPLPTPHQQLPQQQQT

Results are given in words; binding and its absence hold for the method and conditions named. In cells and extracts the contact can be indirect. These calls come from enrichment with a bait or labelling near it, and not all partners need be listed.

The target in the experiment is Flag-Tet (Drosophila) (UniProt M9NEY8). In words: affinity purification with mass spectrometry; Flag-Tet expressed in S2 cells; anti-Flag IP overnight at 4 °C; washes with IP buffer (50 mM Tris-HCl pH 7.5, 150 mM NaCl, 0.5% Triton X-100, 1 mM EDTA) and buffers A-D including 0.5 M NaCl; glycine elution; LC-MS.

B1: Strep-Bap55 (natural protein, Drosophila, UniProt Q7K012 1-425, looked up)
chain: MSGGTMLYGGDEIGALVFDPGHHSLRVGYAQEDSPKAEIPSVVGIGAAPETNLDPETKTDNNATPNNADQRKFYVDTNYVTVPRSNMEVQTYMKDGMIDNWDLFEKVIDYAYANVIQSEPEYHPVLFSEASWNVRNNREKLTELMFEKYNVPAFFLVKNAVLAAFSSGRATALVVDSGATHTSAVPVHEGYVLSQAVVKSPLGGDFLSRQCRQHLEKHGIDLSPVYKIASKDVVKERDNGRFTLRKLPENLTQSWQNYMLQLMMQDFQMNVLQVLENPFDERVAAQIPTVHYEFPNGYHQDFGSERFKIAESLFDNAMLGAGQLASTSVGMCDADVRLSLFGSVVVTGGNTLLQGFPERLNRDLQLRAPSNTRLKMISANGSVERRFGAWIGGSILASIGTFQQMWISSQEYEEAGKSQVERKCP
notes: Drosophila Bap55, full-length Bap55-PA; pFastBac-HTB vectors usually also add an N-terminal His6 tag; source: insect cells (baculovirus), purified (Strep-Tactin XT, Superdex 200)
For B1, the binding entry is given as “binds”.
